# From the supplement of paper PMC8728848
# The other results are listed elsewhere or left out.
# B1: MtEccB1 (Mycobacterium tuberculosis H37Rv), O69734 (protein)
# chain: MGLRLTTKVQVSGWRFLLRRLEHAIVRRDTRMFDDPLQFYSRSIALGIVVAVLILAGAALLAYFKPQGKLGGTSLFTDRATNQLYVLLSGQLHPVYNLTSARLVLGNPANPATVKSSELSKLPMGQTVGIPGAPYATPVSAGSTSIWTLCDTVARADSTSPVVQTAVIAMPLEIDASIDPLQSHEAVLVSYQGETWIVTTKGRHAIDLTDRALTSSMGIPVTARPTPISEGMFNALPDMGPWQLPPIPAAGAPNSLGLPDDLVIGSVFQIHTDKGPQYYVVLPDGIAQVNATTAAALRATQAHGLVAPPAMVPSLVVRIAERVYPSPLPDEPLKIVSRPQDPALCWSWQRSAGDQSPQSTVLSGRHLPISPSAMNMGIKQIHGTATVYLDGGKFVALQSPDPRYTESMYYIDPQGVRYGVPNAETAKSLGLSSPQNAPWEIVRLLVDGPVLSKDAALLEHDTLPADPSPRKVPAGASGAP
# Assays:
# Assay in all cases: glycan array binding signal (z-score within array); higher = stronger binding
# Settings in all cases: glycan notation: IUPAC condensed, linker removed
# [1] = molecular target: Gal(b1-4)GlcNAc(b1-6)Gal(b1-4)GlcNAc
# Method in brief: (§1)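 Negative Z-scores can be read as non-binding. The Z-score is calculated within each array and then averaged across arrays of one protein sequence at different concentrations or buffers and across linkers. Arrays, 3228 in all, were curated from the Consortium for Functional Glycomics database and kept only where the protein sequence was available.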
# [2] = molecular target: Gal(b1-4)GlcNAc(b1-6)GalNAc
# Method in brief: as §1
# [3] = molecular target: Gal(b1-4)GlcNAc(b1-6)[Gal(b1-3)]GalNAc
# Method in brief: as §1
# [4] = molecular target: Gal(b1-4)GlcNAc(b1-6)[Gal(b1-4)GlcNAc(b1-3)]GalNAc
# Method in brief: as §1
# [5] = molecular target: Gal(b1-4)GlcNAc6P
# Method in brief: as §1
# [6] = molecular target: Gal(b1-6)Gal
# Method in brief: as §1
# [7] = molecular target: Gal3S(b1-3)GalNAc
# Method in brief: as §1
# [8] = molecular target: Gal3S(b1-3)GlcNAc
# Method in brief: as §1
# [9] = molecular target: Gal3S(b1-3)[Fuc(a1-4)]GlcNAc
# Method in brief: as §1
# [10] = molecular target: Gal3S(b1-4)Glc
# Method in brief: as §1
# [11] = molecular target: Gal3S(b1-4)Glc6S
# Method in brief: as §1
# [12] = molecular target: Gal3S(b1-4)GlcNAc
# Method in brief: as §1
# [13] = molecular target: Gal3S(b1-4)[Fuc(a1-3)]Glc6S
# Method in brief: as §1
# [14] = molecular target: Gal3S(b1-4)[Fuc(a1-3)]GlcNAc
# Method in brief: as §1
# [15] = molecular target: Gal3S(b1-4)[Fuc(a1-3)]GlcNAc6S
# Method in brief: as §1
# [16] = molecular target: Gal3S4S(b1-4)GlcNAc
# Method in brief: as §1
# [17] = molecular target: Gal3S6S(b1-4)GlcNAc
# Method in brief: as §1
# [18] = molecular target: Gal3S6S(b1-4)GlcNAc6S
# Method in brief: as §1
# [19] = molecular target: Gal4S(b1-4)GlcNAc
# Method in brief: as §1
# [20] = molecular target: Gal4S6S(b1-4)GlcNAc
# Method in brief: as §1
# [21] = molecular target: Gal6P(b1-4)GlcNAc
# Method in brief: as §1
# [22] = molecular target: Gal6S(b1-3)GlcNAc
# Method in brief: as §1
# [23] = molecular target: Gal6S(b1-3)GlcNAc6S
# Method in brief: as §1
# [24] = molecular target: Gal6S(b1-4)Glc
# Method in brief: as §1
# [25] = molecular target: Gal6S(b1-4)Glc6S
# Method in brief: as §1
# [26] = molecular target: Gal6S(b1-4)GlcNAc
# Method in brief: as §1
# [27] = molecular target: Gal6S(b1-4)GlcNAc6S
# Method in brief: as §1
# [28] = molecular target: GalNAc(a1-3)Gal
# Method in brief: as §1
# [29] = molecular target: GalNAc(a1-3)GalNAc
# Method in brief: as §1
# [30] = molecular target: GalNAc(a1-3)GalNAc(b1-3)Gal(a1-4)Gal(b1-4)Glc
# Method in brief: as §1
# [31] = molecular target: GalNAc(a1-3)GalNAc(b1-3)Gal(a1-4)Gal(b1-4)GlcNAc
# Method in brief: as §1
# [32] = molecular target: GalNAc(b1-3)Gal
# Method in brief: as §1
# [33] = molecular target: GalNAc(b1-3)Gal(a1-4)Gal(b1-4)GlcNAc
# Method in brief: as §1
# [34] = molecular target: GalNAc(b1-3)Gal(a1-4)Gal(b1-4)GlcNAc(b1-3)Gal(b1-4)Glc
# Method in brief: as §1
# [35] = molecular target: GalNAc(b1-3)Gal(a1-6)Gal(b1-4)Glc
# Method in brief: as §1
# [36] = molecular target: GalNAc(b1-3)GalNAc
# Method in brief: as §1
# [37] = molecular target: GalNAc(b1-3)GlcNAc
# Method in brief: as §1
# [38] = molecular target: GalNAc(b1-4)Gal(b1-4)Glc
# Method in brief: as §1
binder,measurement,setting,value
B1,glycan array binding signal (z-score),[1],0.467
same,glycan array binding signal (z-score),[2],0.63
same,glycan array binding signal (z-score),[3],-0.463
same,glycan array binding signal (z-score),[4],1.45
same,glycan array binding signal (z-score),[5],0.239
same,glycan array binding signal (z-score),[6],-0.836
same,glycan array binding signal (z-score),[7],0.054
same,glycan array binding signal (z-score),[8],1.11
same,glycan array binding signal (z-score),[9],1.42
same,glycan array binding signal (z-score),[10],1.08
same,glycan array binding signal (z-score),[11],0.396
same,glycan array binding signal (z-score),[12],0.016
same,glycan array binding signal (z-score),[13],-0.428
same,glycan array binding signal (z-score),[14],-0.872
same,glycan array binding signal (z-score),[15],0.115
same,glycan array binding signal (z-score),[16],-0.042
same,glycan array binding signal (z-score),[17],0.192
same,glycan array binding signal (z-score),[18],3.9
same,glycan array binding signal (z-score),[19],-0.41
same,glycan array binding signal (z-score),[20],3.03
same,glycan array binding signal (z-score),[21],-0.972
same,glycan array binding signal (z-score),[22],1.01
same,glycan array binding signal (z-score),[23],0.081
same,glycan array binding signal (z-score),[24],0.586
same,glycan array binding signal (z-score),[25],-0.71
same,glycan array binding signal (z-score),[26],0.062
same,glycan array binding signal (z-score),[27],-0.899
same,glycan array binding signal (z-score),[28],-0.394
same,glycan array binding signal (z-score),[29],-0.719
same,glycan array binding signal (z-score),[30],-0.822
same,glycan array binding signal (z-score),[31],-2.02
same,glycan array binding signal (z-score),[32],-1.19
same,glycan array binding signal (z-score),[33],0.639
same,glycan array binding signal (z-score),[34],0.931
same,glycan array binding signal (z-score),[35],-0.145
same,glycan array binding signal (z-score),[36],-0.908
same,glycan array binding signal (z-score),[37],-1.09
same,glycan array binding signal (z-score),[38],-0.899

# Some of the entries above, reformatted.
binder	measurement	setting	value
B1	glycan array binding signal (z-score)	[18]	3.9
same	glycan array binding signal (z-score)	[19]	-0.41
